# Reference: PubChem BioAssay AID504834 (National Center for Advancing Translational Sciences (NCATS), 2011)
# Screen size: about 320,000 compounds; about 22,000 (6.9%) were called active. This list was built around the results that the source calls inconclusive (neither active nor inactive); the mix of calls is not that of the screen. The call rests on the fitted dose curve; in most records, active means well fitted inhibition curve with a large enough effect; inconclusive means small, poorly fitted or top-dose-only effect, or another doubt; inactive means no such curve, though single readings can be large or run the other way. A potency beside an inconclusive call is a rough fit, not a confirmed value.
# Test: Primary qHTS for delayed death inhibitors of the malarial parasite plastid, 96 hour incubation
# Settings: P. falciparum luciferase reporter growth; series mostly up to 28.7 µM
# In short: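 Readout is luminescence from an integrated firefly luciferase in P. falciparum. Red cells, 2% hematocrit and 0.05% parasitemia final, were cultured with compound through two parasite generations (96 hours) at 37 C, 5% CO2.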
# Potency means the concentration at half of the fitted maximal effect.
row,Structure (SMILES),Potency
1,O=C(NCCCN1CCCC1=O)c1cc(COc2ccc(F)cc2F)on1,"inconclusive: 18.5 µM [inhibitor, single point]"
2,CN(Cc1ccc(Cl)cc1)C(=O)CCl,"inconclusive: 2.33 µM [inhibitor, full curve, poor fit]"
3,Cc1ccc(S(=O)(=O)c2cn(C)c3cc(N4CCN(C)CC4)c(F)cc3c2=O)c(C)c1,inactive
4,CNCc1ccc(OCc2ccccc2)c(OC)c1,inactive
5,CC(=O)Nc1ccc(NC(=O)C2CCCN2C(=O)NC2CCCCC2)cc1 (stereo not drawn),"inconclusive: 5.86 µM [inhibitor, partial curve, poor fit]"
6,COc1ccc(N2CCN(C(=O)CNC(=O)c3cccc(Br)c3)CC2)cc1,inactive
7,O=C(COC(=O)c1ccc(O)cc1O)Nc1ccc(Cl)cn1,"inconclusive: 20.8 µM [inhibitor, single point]"
8,Cc1nnc(SCC(=O)NNC(=O)CC#N)[nH]c1=O,"inconclusive: 4.65 µM [inhibitor, partial curve, poor fit]"
9,CCOC(=O)c1[nH]c2ccc(OC)cc2c1NC(=O)CCN1CCC(C)CC1,"inconclusive: 0.828 µM [inhibitor, full curve, poor fit]"
10,CCCn1c(SCC(=O)NC)nc2sc3c(c2c1=O)CCC3,"inconclusive: 4.65 µM [inhibitor, partial curve]"
11,O=C(Nc1ncc(Cc2ccc(SC(F)F)cc2)s1)c1ccccc1,"inconclusive: 18.5 µM [inhibitor, single point]"
12,CCOC(=O)C1CCN(S(=O)(=O)c2ccc(-n3cnnn3)c(C)c2)CC1,"inconclusive: 10.4 µM [inhibitor, partial curve, poor fit]"
13,Cc1cc(Nc2nc3ccccc3nc2Cl)n(-c2ccccc2)n1,"inconclusive: 0.294 µM [inhibitor, full curve, poor fit]"
14,CCS(=O)(=O)Nc1ccccc1C(N)=O,"inconclusive: 18.5 µM [inhibitor, single point]"
15,CCC(C)NC(=O)C1CCC(=O)N(c2cc(OC)c(OC)c(OC)c2)C1c1ccc(OC)cc1 (stereo not drawn),"inconclusive: 9.28 µM [inhibitor, single point]"
16,CCN(CC(=O)Nc1c(F)cccc1F)C(=O)c1cc(S(=O)(=O)N2CCOCC2)ccc1N1CCCC1,"inconclusive: 18.5 µM [inhibitor, single point]"
17,CCCCn1nnnc1SCC(=O)c1cc(Cl)ccc1OC,"inconclusive: 0.0586 µM [inhibitor, full curve, poor fit]"
18,CCCCNc1c(N2CCN(C(=O)OCC)CC2)c(=O)c1=O,"inconclusive: 18.5 µM [inhibitor, single point]"
19,COc1ccc(CC(=O)NC(C)c2nnc(SCC(=O)Nc3nc(C)cs3)n2C)cc1 (stereo not drawn),inactive
20,Clc1ccccc1Cc1noc(CN2CCN(Cc3ccccn3)CC2)n1,"inconclusive: 3.7 µM [inhibitor, single point]"
21,CCOc1ccc(NS(=O)(=O)c2ccc(C(=O)NCC(c3cccs3)N3CCOCC3)cc2)cc1 (stereo not drawn),inactive
22,COc1ccccc1NS(=O)(=O)c1cc2c(cc1C)NC(=O)CO2,"inconclusive: 18.5 µM [inhibitor, single point]"
23,CCc1ccccc1NC(=O)c1ccc(-c2csc(C)n2)cc1,inactive
24,O=C(Nc1ccccc1Cl)N1CCCN(c2nc(-c3ccccc3)ns2)CC1,"inconclusive: 11.7 µM [inhibitor, single point]"
25,COc1ccc([C@H]2[C@@H](C#N)[C@H](C#N)N3CCCN23)cc1,inactive

# Not a retest: an excerpt of the list.
row,Structure (SMILES),Potency
14,CCS(=O)(=O)Nc1ccccc1C(N)=O,"inconclusive: 18.5 µM [inhibitor, single point]"
15,CCC(C)NC(=O)C1CCC(=O)N(c2cc(OC)c(OC)c(OC)c2)C1c1ccc(OC)cc1 (stereo not drawn),"inconclusive: 9.28 µM [inhibitor, single point]"
16,CCN(CC(=O)Nc1c(F)cccc1F)C(=O)c1cc(S(=O)(=O)N2CCOCC2)ccc1N1CCCC1,"inconclusive: 18.5 µM [inhibitor, single point]"
17,CCCCn1nnnc1SCC(=O)c1cc(Cl)ccc1OC,"inconclusive: 0.0586 µM [inhibitor, full curve, poor fit]"
18,CCCCNc1c(N2CCN(C(=O)OCC)CC2)c(=O)c1=O,"inconclusive: 18.5 µM [inhibitor, single point]"
19,COc1ccc(CC(=O)NC(C)c2nnc(SCC(=O)Nc3nc(C)cs3)n2C)cc1 (stereo not drawn),inactive
20,Clc1ccccc1Cc1noc(CN2CCN(Cc3ccccn3)CC2)n1,"inconclusive: 3.7 µM [inhibitor, single point]"

# Going on with the list:

row,Structure (SMILES),Potency
1,COc1ccc(NC(=O)c2cc(C)no2)cc1Cl,active: 3.7 µM
2,Cc1[nH]c2ccccc2c1C(=O)C(C)OC(=O)c1ccc([N+](=O)[O-])o1 (stereo not drawn),"inconclusive: 4.15 µM [inhibitor, single point]"
3,CCc1cc(CN2CCOCC2)c(NC(=O)c2ccccc2)s1,inactive
4,O=C1C2C3C=CC(CO)(O3)C2C(=O)N1c1ccccc1-c1ccccc1 (stereo not drawn),active: 5.86 µM
5,CCOC(=O)c1c(C)n(C)c2cc(-c3cccc(C(F)(F)F)c3)c(O)cc12,"inconclusive: 10.4 µM [inhibitor, single point]"
6,COc1cc2ccccc2cc1C(=O)Nc1ccccc1C,"inconclusive: 18.5 µM [inhibitor, single point]"
7,CCCN(CC(=O)Nc1ccc(Cl)cc1Cl)Cc1cc(=O)n2ccsc2n1,"inconclusive: 13.1 µM [inhibitor, partial curve]"
8,CCOC(=O)Cc1csc(NC(=O)CN2C(=O)c3ccccc3C2=O)n1,inactive
9,Cc1cccc(-n2c(=O)c3c4c(sc3n3c(=S)[nH]nc23)CCC4)c1,inactive
10,COc1cc(C(=O)NCc2nnc(SCC(=O)Nc3nc4ccccc4s3)o2)cc(OC)c1OC,"inconclusive: 2.08 µM [inhibitor, single point]"
11,C#CC(CCN1CCCCC1)(OC)c1ccccc1 (stereo not drawn),"inconclusive: 18.5 µM [inhibitor, single point]"
12,COc1ccc2[nH]c(=O)c(C(=O)O)cc2c1,inactive
13,COc1ccc(C(=O)C2CN(c3ccccc3)CC2c2ccc(Cl)cc2)cc1 (stereo not drawn),"inconclusive: 4.15 µM [inhibitor, partial curve]"
14,Cc1ccc(S(=O)(=O)N(C)C)cc1NC(=O)c1ccc2ccccc2n1,"inconclusive: 0.0029 µM [inhibitor, full curve, poor fit]"
15,Cc1ccc(-n2c(Cc3cccn3C)nnc2SCC(=O)Nc2nnc(C)s2)cc1,inactive
16,Cc1ccc(-c2csc3nc(=O)c(C)nn23)cc1,active: 5.22 µM
17,Cc1cc(C)cc(OCC(=O)NNC(=O)c2cc3ccccc3o2)c1,"inconclusive: 18.5 µM [inhibitor, single point]"
18,O=C(CC1Nc2ccccc2NC1=O)c1ccccc1 (stereo not drawn),"inconclusive: 11.7 µM [inhibitor, single point]"
19,O=C(Nc1ccc2c(c1)OCO2)C1CCN(C(=O)c2cccs2)CC1,"inconclusive: 18.5 µM [inhibitor, single point]"
20,Cc1ccc(NC2CC(C)NC(=S)N2)cc1 (stereo not drawn),inactive
21,CCOC(=O)c1c(-c2ccccc2)nc2ccccn12,inactive
22,O=C(Nc1ccccc1)c1ccc(NCCc2ccccc2)c([N+](=O)[O-])c1,"inconclusive: 8.28 µM [inhibitor, partial curve, poor fit]"
23,Cc1ccc(C(=O)Nc2cccc(S(=O)(=O)N3CCCCC3)c2)cc1[N+](=O)[O-],active: 8.28 µM
24,O=C(NCc1ccccc1)c1ccc2c(=O)n3c(nc2c1)CCCCC3,"inconclusive: 6.57 µM [inhibitor, partial curve]"
25,Cc1noc(C)c1COc1ccc(C(=O)NNC(=O)c2ccccc2O)cc1,"inconclusive: 2.08 µM [inhibitor, full curve, poor fit]"

row,Structure (SMILES),Potency
1,O=C(N/N=C/c1ccsc1)c1ccccn1,inactive
2,CCCN1CCC(NC(=O)C2CCCCC2C(=O)O)CC1 (stereo not drawn),"inconclusive: 13.1 µM [inhibitor, single point]"
3,CCn1ncc(CN2CCC(C(=O)Nc3cccc(-c4cccc(F)c4)c3)CC2)c1C,inactive
4,N#Cc1ccccc1COc1ccc(/C=C/C(=O)O)cc1,inactive
5,O=C(NN=C1CCCC1)C(=O)Nc1cccc(C(F)(F)F)c1,"inconclusive: 10.4 µM [inhibitor, single point]"
6,CC1CCCCC1NC(=O)/C=C/c1nc2ccccc2s1 (stereo not drawn),"inconclusive: 13.1 µM [inhibitor, partial curve, poor fit]"
7,CN1C(=O)S/C(=C\c2ccccc2OCc2ccc(C(=O)O)cc2)C1=O,"inconclusive: 18.5 µM [inhibitor, single point]"
8,CCOc1cccc(/C(O)=C2/C(=O)C(=O)N(CCN3CCOCC3)C2c2cccnc2)c1 (stereo not drawn),"inconclusive: 16.5 µM [inhibitor, single point]"
9,O=C(c1ccco1)N(CCC(c1ccccc1)c1ccco1)Cc1ccccc1 (stereo not drawn),active: 13.1 µM
10,CCC(C)NC(=O)c1cc(Sc2nnc(C)s2)nc2ccccc12 (stereo not drawn),"inconclusive: 7.38 µM [inhibitor, partial curve, poor fit]"
11,CCOc1cc2[nH]c(=O)n(CCCN3CCN(c4ccc(OC)cc4)CC3)c(=O)c2cc1OCC,"inconclusive: 18.5 µM [inhibitor, single point]"
12,COc1ccc(C(=O)c2ccc(N3CCN(C(=O)c4ccc(F)cc4)CC3)c(F)c2)cc1Br,inactive
13,COc1ccc(CCNC(=O)c2cc(-c3ccc(C)cc3O)n[nH]2)cc1OC,active: 7.38 µM
14,O=C(c1ccc2nc[nH]c2c1)N1CCN(c2cccc(Cl)c2)CC1,active: 5.86 µM
15,CCSc1nnc(NC(=O)c2cccc(OCc3c(C)noc3C)c2)s1,"inconclusive: 6.57 µM [inhibitor, partial curve]"
16,Cc1ccc(NC(=O)N2CCc3ccccc32)cc1C,inactive
17,O=C(O)C1C2CCC(O2)C1C(=O)Nc1ccc(Cl)cc1F (stereo not drawn),"inconclusive: 18.5 µM [inhibitor, single point]"
18,CCN(CC)c1cccc(OC2=NS(=O)(=O)c3ccccc32)c1,"inconclusive: 8.28 µM [inhibitor, partial curve]"
19,Cc1ccc(S(=O)(=O)Nc2ccc3c(c2)nc(CCN2CCCC2)n3C)cc1,"inconclusive: 9.28 µM [inhibitor, single point]"
20,CC(=O)N[C@@H](CS)C(=O)O,inactive
21,COC(=O)/C(C#N)=C/N(C)C,inactive
22,COc1ccc(CCNC(=S)Nc2cc(C)cc(C)c2)cc1,"inconclusive: 18.5 µM [inhibitor, single point]"
23,COc1cc(OC)c(C2=NOC(C(=O)Nc3ccc4c(c3)OCO4)C2)cc1Cl (stereo not drawn),"inconclusive: 0.233 µM [inhibitor, partial curve, poor fit]"
